Values from PubChem BioAssay AID1259280 (Sanger Institute, 2017).

- Aim: 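Kinase knock-downs that kill colorectal cancer cells or add to anchor drugs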 (primary screen)
- Cells: human SNU407 colorectal cancer cells
- Knock-down reagent: siRNA pool against human genes
- Conditions: anchor drugs BYL719 at 1 µM, cetuximab at 5 µg/ml or trametinib at 10 nM, or DMSO vehicle alone; exposure time not given
- Measured: 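Viability per well scaled to a non-targeting pool and averaged over replicates, with a robust z-score from controls and a synergy score per anchor drug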
- Scale: viability z-score, no drug and viability vs control, no drug: higher = more cells survive the knock-down; synergy with trametinib and synergy with BYL719 and synergy with cetuximab: higher = stronger synergy of knock-down with drug
- Rule for the call: 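Essential calls require a no-drug robust viability z-score under -3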
- Calls: active = essential (knock-down alone kills cells); inactive = no change without drug
The whole screen tested 794 reagents; below is a random part of them. Of all reagents, 12 (1.5%) got an active call. 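Calls cover knock-down without drug only; synergy scores stand apart, values above 0.15 being treated as synergy.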 Entries without a mark were called inactive. No viability above 1 is reported: the scale is capped. The record does not give: the amount of reagent, the time to read-out.

gene | viability z-score, no drug | viability vs control, no drug (fraction of control) | synergy with trametinib | synergy with BYL719 | synergy with cetuximab
PNKP (polynucleotide kinase 3'-phosphatase) | -0.299 | 0.908 | 0.0589 | 0.0529 | -0.0277
MAP3K4 (mitogen-activated protein kinase kinase kinase 4) | 0.894 | 0.999 | -0.0544 | -0.0154 | -0.0104
TP53RK (TP53 regulating kinase) | 0.901 | 1 | 0.0106 | 0.122 | -0.0209
ITPK1 (inositol-tetrakisphosphate 1-kinase) | 0.901 | 1 | 0.146 | 0.0488 | 0.0201
EIF2AK4 (eukaryotic translation initiation factor 2 alpha kinase 4) | 0.901 | 1 | 0.0173 | 0.0393 | -0.0512
GATA3 (GATA binding protein 3) | -2.49 | 0.741 | -0.187 | -0.0209 | -0.0583
CKS2 (CDC28 protein kinase regulatory subunit 2) | 0.63 | 0.979 | -0.0497 | 0.0606 | 0.0279
MYLK3 (myosin light chain kinase 3) | 0.529 | 0.972 | -0.0784 | 0.00659 | -0.0119
PHKB (phosphorylase kinase regulatory subunit beta) | 0.901 | 1 | -0.0915 | -0.0148 | -0.0175
RBM10 (RNA binding motif protein 10) | -1.61 | 0.808 | 0.0471 | 0.0714 | 0.0132
PI4K2B (phosphatidylinositol 4-kinase type 2 beta) | 0.882 | 0.999 | 0.0963 | -0.179 | -0.0512
CALM3 (calmodulin 3) | -1.26 | 0.835 | -0.0971 | -0.000713 | -0.113
ADK (adenosine kinase) | -1.12 | 0.846 | -0.052 | -0.0451 | -0.0987
MAPK11 (mitogen-activated protein kinase 11) | 0.721 | 0.986 | 0.0941 | 0.0987 | 0.0402
KRAS (KRas proto-oncogene, GTPase) | -2.67 | 0.727 | 0.0684 | 0.143 | 0.119
NRBP1 (nuclear receptor binding protein 1) | -0.15 | 0.92 | -0.0744 | 0.0596 | -0.0159
MAPK8 (mitogen-activated protein kinase 8) | -1.31 | 0.831 | -0.0146 | -0.114 | -0.158
DGKH (diacylglycerol kinase eta) | -0.572 | 0.887 | 0.039 | 0.0589 | -0.0366
PRKAG3 (protein kinase AMP-activated non-catalytic subunit gamma 3) | -2.29 | 0.756 | -0.0416 | 0.00203 | 0.014
TRIB2 (tribbles pseudokinase 2) | -0.234 | 0.913 | 0.0994 | 0.198 | 0.0366
EPHA10 (EPH receptor A10) | -0.184 | 0.917 | 0.0899 | 0.0647 | 0.176
FLT3 (fms related receptor tyrosine kinase 3) | 0.563 | 0.974 | 0.0209 | 0.14 | 0.0748
NEK5 (NIMA related kinase 5) | 0.226 | 0.948 | -0.0174 | -0.0127 | -0.0159

Continued, starting with the last 9 of the part before.
gene | viability z-score, no drug | viability vs control, no drug (fraction of control) | synergy with trametinib | synergy with BYL719 | synergy with cetuximab
KRAS (KRas proto-oncogene, GTPase) | -2.67 | 0.727 | 0.0684 | 0.143 | 0.119
NRBP1 (nuclear receptor binding protein 1) | -0.15 | 0.92 | -0.0744 | 0.0596 | -0.0159
MAPK8 (mitogen-activated protein kinase 8) | -1.31 | 0.831 | -0.0146 | -0.114 | -0.158
DGKH (diacylglycerol kinase eta) | -0.572 | 0.887 | 0.039 | 0.0589 | -0.0366
PRKAG3 (protein kinase AMP-activated non-catalytic subunit gamma 3) | -2.29 | 0.756 | -0.0416 | 0.00203 | 0.014
TRIB2 (tribbles pseudokinase 2) | -0.234 | 0.913 | 0.0994 | 0.198 | 0.0366
EPHA10 (EPH receptor A10) | -0.184 | 0.917 | 0.0899 | 0.0647 | 0.176
FLT3 (fms related receptor tyrosine kinase 3) | 0.563 | 0.974 | 0.0209 | 0.14 | 0.0748
NEK5 (NIMA related kinase 5) | 0.226 | 0.948 | -0.0174 | -0.0127 | -0.0159
STK11 (serine/threonine kinase 11) | 0.593 | 0.976 | 0.0115 | 0.0821 | -0.0197
APC (APC regulator of Wnt signaling pathway) | -0.078 | 0.925 | -0.0234 | -0.0606 | -0.048
FRK (fyn related Src family tyrosine kinase) | 0.447 | 0.965 | -0.0768 | -0.0358 | 0.00755
BLK (BLK proto-oncogene, Src family tyrosine kinase) | -0.123 | 0.922 | -0.0485 | 0 | -0.068
CDK14 (cyclin dependent kinase 14) | 0.744 | 0.988 | -0.139 | 0.062 | -0.0419
MAPKAPK3 (MAPK activated protein kinase 3) | -0.997 | 0.855 | -0.0585 | -0.00529 | -0.0364
STKLD1 (serine/threonine kinase like domain containing 1) | -2.36 | 0.751 | 0.0365 | 0.0871 | 0.00826
DYRK1B | -0.658 | 0.881 | 0.074 | 0.064 | 0.00464
UCK2 (uridine-cytidine kinase 2) | -0.0632 | 0.926 | -0.0419 | -0.00152 | -0.106
PXK (PX domain containing serine/threonine kinase like) | 0.75 | 0.988 | -0.0737 | 0.0507 | 0.0566
CDK20 (cyclin dependent kinase 20) | 0.598 | 0.977 | -0.00804 | 0.0746 | 0.0541
CSNK1A1L (casein kinase 1 alpha 1 like) | 0.574 | 0.975 | -0.147 | 0.0192 | -0.0194
CAMK2N1 (calcium/calmodulin dependent protein kinase II inhibitor 1) | -0.232 | 0.913 | -0.00183 | 0.0407 | -0.0444
MAP2K6 (mitogen-activated protein kinase kinase 6) | 0.901 | 1 | 0.0669 | 0.062 | 0.0495
AK1 (adenylate kinase 1) | -1.7 | 0.801 | -0.106 | -0.119 | -0.0605
PCBP1 (poly(rC) binding protein 1) | -0.465 | 0.896 | -0.123 | -0.144 | -0.138
VRK1 (VRK serine/threonine kinase 1) | -0.0323 | 0.929 | -0.055 | 0.0514 | 0.0206
RPS6KA6 (ribosomal protein S6 kinase A6) | -0.341 | 0.905 | -0.0431 | 0.00941 | -0.0624
CPNE3 (copine 3) | 0.625 | 0.979 | -0.0156 | 0.022 | 0.0133
GUCY2F (guanylate cyclase 2F, retinal) | 0.901 | 1 | -0.0487 | -0.0223 | -0.0166
RBKS (ribokinase) | 0.901 | 1 | -0.101 | -0.0407 | -0.0625
FLT1 (fms related receptor tyrosine kinase 1) | 0.901 | 1 | 0.00441 | 0.00694 | -0.0101
TAF1L (TATA-box binding protein associated factor 1 like) | 0.461 | 0.966 | 0.0724 | 0.0102 | 0.146
MPP1 (MAGUK p55 scaffold protein 1) | 0.506 | 0.97 | 0.0191 | 0.0613 | -0.116
ACSL6 (acyl-CoA synthetase long chain family member 6) | -0.724 | 0.876 | -0.0822 | 0.0697 | -0.0555
CLK3 (CDC like kinase 3) | -0.0926 | 0.924 | -0.0535 | 0.0306 | -0.0069
AMER1 (APC membrane recruitment protein 1) | 0.901 | 1 | -0.00206 | 0.124 | -0.0112
CDC42BPA (CDC42 binding protein kinase alpha) | -2.45 | 0.744 | -0.0729 | -0.151 | -0.026
WNK2 (WNK lysine deficient protein kinase 2) | 0.901 | 1 | -0.0827 | -0.00674 | -0.0751
MAPK15 (mitogen-activated protein kinase 15) | 0.901 | 1 | -0.0117 | 0.0157 | 0.0825
CDK5R2 (cyclin dependent kinase 5 regulatory subunit 2) | 0.247 | 0.95 | -0.0281 | -0.000434 | -0.125
CASP8 (caspase 8) | 0.901 | 1 | -0.0446 | -0.0491 | -0.0661
CSK (C-terminal Src kinase) | -0.655 | 0.881 | -0.0986 | -0.0594 | -0.122
KDR (kinase insert domain receptor) | 0.89 | 0.999 | 0.0361 | 0.0656 | 0.0902
RIPK4 (receptor interacting serine/threonine kinase 4) | 0.544 | 0.973 | -0.00188 | 0.027 | -0.0477
BPTF (bromodomain PHD finger transcription factor) | -1.47 | 0.819 | 0.0182 | 0.0748 | 0.0109
GSK3B (glycogen synthase kinase 3 beta) | 0.901 | 1 | -0.0268 | 0.022 | -0.0783
DGKB (diacylglycerol kinase beta) | -1.39 | 0.825 | -0.00699 | -0.0633 | 0.0257
DLG1 (discs large MAGUK scaffold protein 1) | 0.901 | 1 | -0.0152 | 0.00408 | 0.0325
TESK1 (testis associated actin remodelling kinase 1) | 0.141 | 0.942 | -0.0512 | 0.0358 | -0.0506
